Data reported in patent publication US11458114B2, “Methods and compositions for enhancing synthesis secretion and transport of collagen to increase wound strength” (NORTH CELL PHARMACEUTICALS, INC., priority 2020, dated 2022).
For some assays here: For at least one compound, name, drawing or mass did not settle the structure. Some of these results come from one statement about several compounds together.

Key:
[1] = test system: tumor multiplicity and tumor load; conditions: 10 mg/5 mL topical daily, 8 weeks; cited from earlier work
[2] = test system: human lung cancer cell line; conditions: cited from earlier work
rat tissue culture = assay: Rat tissue culture C-14 testing; assay type: cell-based; conditions: C 14 labeled components

Row | SMILES | decreased tumor load [1] [%] | decreased tumor multiplicity [1] [%] | hexokinase activity ([2]; cancer cells) | immune histo chemical staining for cleaved caspase-3 ([2]; tissue cultures of cancer cells) | increase of the production of collagen (rat tissue culture)
1 | O=C(O)C(=O)CBr [3-bromopyruvate] | 60 | 40 | reduced | increased | –
2 | NC(=O)NCCC[C@H](N)C(=O)O [L-citrulline] | – | – | – | – | 10-18%
